Our source for the binding values is publication PMC9296036, “A peptide interfering with the dimerization of oncogenic KITENIN protein and its stability suppresses colorectal tumour progression” (Clinical and Translational Medicine, 2022).

Sequences of proteins named here, by UniProt entry; tags and fusion partners are left off.
UniProt Q9HD67: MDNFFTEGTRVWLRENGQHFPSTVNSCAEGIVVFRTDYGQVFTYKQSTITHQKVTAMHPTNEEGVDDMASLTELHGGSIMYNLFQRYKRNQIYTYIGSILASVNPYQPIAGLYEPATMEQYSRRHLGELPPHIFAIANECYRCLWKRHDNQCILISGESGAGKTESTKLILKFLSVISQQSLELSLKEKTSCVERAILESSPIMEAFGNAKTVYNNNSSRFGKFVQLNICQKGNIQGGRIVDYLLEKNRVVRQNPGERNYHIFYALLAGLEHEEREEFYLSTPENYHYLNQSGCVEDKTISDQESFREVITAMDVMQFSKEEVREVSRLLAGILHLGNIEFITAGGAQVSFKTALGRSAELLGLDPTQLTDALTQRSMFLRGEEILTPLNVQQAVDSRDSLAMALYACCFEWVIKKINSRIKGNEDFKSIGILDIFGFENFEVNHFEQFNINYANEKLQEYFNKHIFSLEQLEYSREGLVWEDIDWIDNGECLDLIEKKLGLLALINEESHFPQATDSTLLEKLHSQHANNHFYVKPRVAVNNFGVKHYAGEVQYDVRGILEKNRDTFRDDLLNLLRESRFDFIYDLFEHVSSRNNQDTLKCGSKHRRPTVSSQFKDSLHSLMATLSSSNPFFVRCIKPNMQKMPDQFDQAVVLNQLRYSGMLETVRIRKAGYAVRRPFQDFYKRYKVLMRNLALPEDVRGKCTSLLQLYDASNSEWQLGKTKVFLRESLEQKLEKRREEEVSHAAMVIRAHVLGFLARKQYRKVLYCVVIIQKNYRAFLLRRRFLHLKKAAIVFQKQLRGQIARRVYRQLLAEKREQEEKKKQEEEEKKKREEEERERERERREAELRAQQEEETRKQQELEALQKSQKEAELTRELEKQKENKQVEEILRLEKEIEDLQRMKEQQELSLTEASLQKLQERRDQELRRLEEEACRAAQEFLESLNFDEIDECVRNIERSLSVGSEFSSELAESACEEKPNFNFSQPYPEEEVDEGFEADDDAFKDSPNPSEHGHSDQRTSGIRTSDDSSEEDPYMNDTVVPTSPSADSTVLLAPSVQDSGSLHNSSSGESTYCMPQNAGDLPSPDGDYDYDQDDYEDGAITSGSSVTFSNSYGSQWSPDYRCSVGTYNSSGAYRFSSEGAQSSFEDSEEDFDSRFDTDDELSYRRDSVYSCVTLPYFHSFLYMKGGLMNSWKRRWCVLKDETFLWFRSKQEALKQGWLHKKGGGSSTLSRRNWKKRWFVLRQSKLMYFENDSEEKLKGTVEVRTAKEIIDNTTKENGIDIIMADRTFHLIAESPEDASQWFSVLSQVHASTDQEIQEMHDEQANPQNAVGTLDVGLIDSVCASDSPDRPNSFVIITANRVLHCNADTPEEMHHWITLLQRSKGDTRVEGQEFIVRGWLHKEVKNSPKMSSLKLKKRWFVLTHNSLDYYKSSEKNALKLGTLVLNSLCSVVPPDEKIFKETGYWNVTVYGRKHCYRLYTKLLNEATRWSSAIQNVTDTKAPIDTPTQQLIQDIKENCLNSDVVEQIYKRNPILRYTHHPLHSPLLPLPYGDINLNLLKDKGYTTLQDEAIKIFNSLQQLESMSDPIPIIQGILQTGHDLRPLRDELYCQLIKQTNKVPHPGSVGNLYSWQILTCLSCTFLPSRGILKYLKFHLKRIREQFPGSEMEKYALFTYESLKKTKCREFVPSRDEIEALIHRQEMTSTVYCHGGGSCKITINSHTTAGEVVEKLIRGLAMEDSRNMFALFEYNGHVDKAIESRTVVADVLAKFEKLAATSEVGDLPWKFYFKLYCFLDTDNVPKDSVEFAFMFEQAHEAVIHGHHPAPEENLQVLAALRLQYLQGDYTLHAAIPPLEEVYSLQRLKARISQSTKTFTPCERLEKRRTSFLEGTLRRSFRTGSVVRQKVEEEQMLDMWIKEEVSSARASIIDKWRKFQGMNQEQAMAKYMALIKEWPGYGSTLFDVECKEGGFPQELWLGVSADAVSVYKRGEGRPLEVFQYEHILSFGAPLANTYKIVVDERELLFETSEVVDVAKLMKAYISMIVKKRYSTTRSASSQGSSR

Results are given in words; binding and its absence hold for the method and conditions named. Binding seen in cells or lysates may run through a third protein. These calls come from enrichment with a bait or labelling near it, and not all partners need be listed. Where a sequence is shown, tags or fusion partners need not be part of it.

One assay concerns the target T1, V5-tagged KITENIN (UniProt Q8TAA9).
T1 sequence: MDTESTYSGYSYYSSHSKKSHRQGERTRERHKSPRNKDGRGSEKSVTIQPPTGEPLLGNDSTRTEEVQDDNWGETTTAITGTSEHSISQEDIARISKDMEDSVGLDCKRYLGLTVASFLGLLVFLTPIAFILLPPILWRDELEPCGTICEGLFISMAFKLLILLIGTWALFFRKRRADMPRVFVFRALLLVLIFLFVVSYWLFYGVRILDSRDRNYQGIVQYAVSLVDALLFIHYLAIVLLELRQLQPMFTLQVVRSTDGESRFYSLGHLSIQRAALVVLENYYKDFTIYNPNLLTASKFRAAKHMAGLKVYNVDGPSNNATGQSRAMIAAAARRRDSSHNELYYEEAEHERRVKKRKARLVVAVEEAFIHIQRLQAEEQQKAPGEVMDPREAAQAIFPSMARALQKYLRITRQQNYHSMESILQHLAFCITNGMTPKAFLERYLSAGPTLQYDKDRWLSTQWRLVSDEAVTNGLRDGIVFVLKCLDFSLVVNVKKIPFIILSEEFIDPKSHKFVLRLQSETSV
In words: affinity purification with mass spectrometry; Caco2/KITENIN-V5 cells treated with scr-peptide or KDIP, IP with anti-V5 antibody, SDS-PAGE, Coomassie blue, bands that changed cut out for peptide mass fingerprinting.

In assay [1] the target is T2, Myc-tagged KITENIN (KAI1 C-terminal interacting tetraspanin; Vangl1) (UniProt Q8TAA9).
T2 sequence: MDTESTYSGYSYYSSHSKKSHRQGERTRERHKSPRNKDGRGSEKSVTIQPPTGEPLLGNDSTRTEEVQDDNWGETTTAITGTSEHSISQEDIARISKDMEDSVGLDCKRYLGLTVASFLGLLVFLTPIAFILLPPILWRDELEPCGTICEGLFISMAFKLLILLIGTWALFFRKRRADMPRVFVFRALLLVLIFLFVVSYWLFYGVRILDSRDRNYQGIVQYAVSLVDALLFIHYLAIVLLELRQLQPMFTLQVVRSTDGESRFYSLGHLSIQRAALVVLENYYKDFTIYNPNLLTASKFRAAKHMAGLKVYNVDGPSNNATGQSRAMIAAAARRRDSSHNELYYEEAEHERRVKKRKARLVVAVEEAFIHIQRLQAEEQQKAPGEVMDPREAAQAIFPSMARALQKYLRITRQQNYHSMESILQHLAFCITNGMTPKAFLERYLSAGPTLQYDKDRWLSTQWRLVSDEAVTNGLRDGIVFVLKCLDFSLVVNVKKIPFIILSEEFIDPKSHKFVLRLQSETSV
In words: affinity purification with mass spectrometry; lysate of KITENIN-myc-overexpressing 293T cells precipitated with Myc-Tag antibody, SDS-PAGE, 130-kDa band identified by peptide mass fingerprinting (MALDI-TOF).

Take “myosin-X (Myo10), endogenous (from UniProt Q9HD67 1-2058)”: in the assay with V5-tagged KITENIN, the binding entry is given as “binds”.

B1: endogenous KITENIN (natural protein, UniProt Q8TAA9 1-524, looked up)
chain: MDTESTYSGYSYYSSHSKKSHRQGERTRERHKSPRNKDGRGSEKSVTIQPPTGEPLLGNDSTRTEEVQDDNWGETTTAITGTSEHSISQEDIARISKDMEDSVGLDCKRYLGLTVASFLGLLVFLTPIAFILLPPILWRDELEPCGTICEGLFISMAFKLLILLIGTWALFFRKRRADMPRVFVFRALLLVLIFLFVVSYWLFYGVRILDSRDRNYQGIVQYAVSLVDALLFIHYLAIVLLELRQLQPMFTLQVVRSTDGESRFYSLGHLSIQRAALVVLENYYKDFTIYNPNLLTASKFRAAKHMAGLKVYNVDGPSNNATGQSRAMIAAAARRRDSSHNELYYEEAEHERRVKKRKARLVVAVEEAFIHIQRLQAEEQQKAPGEVMDPREAAQAIFPSMARALQKYLRITRQQNYHSMESILQHLAFCITNGMTPKAFLERYLSAGPTLQYDKDRWLSTQWRLVSDEAVTNGLRDGIVFVLKCLDFSLVVNVKKIPFIILSEEFIDPKSHKFVLRLQSETSV
notes: KITENIN (Vangl1), endogenous; also called endogenous KITENIN dimer; source: endogenous, HEK293T, HCT116 or Caco2 lysate
Consider B1, for which the binding result in assay [1] is given as “binds”.
